Reference: PubChem BioAssay AID488840 (Broad Institute, 2010)
Hit rate of the full screen: of about 1,400 compounds, about 45 (3%) were called active.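 How the source made its calls: active means half-maximal dose of signal decrease from fit no higher than ten times the top valid tested dose; inconclusive means fit invalid, or curve flat with 30 to 70% inhibition; inactive means the rest.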 This is one part of the list. Results with a measured potency or affinity are listed apart.

By UniProt entry, the sequences of proteins in these tests, tags left out. Where a name states a change or a piece, a line headed by the entry shows the natural chain unless it says otherwise.
UniProt O75164: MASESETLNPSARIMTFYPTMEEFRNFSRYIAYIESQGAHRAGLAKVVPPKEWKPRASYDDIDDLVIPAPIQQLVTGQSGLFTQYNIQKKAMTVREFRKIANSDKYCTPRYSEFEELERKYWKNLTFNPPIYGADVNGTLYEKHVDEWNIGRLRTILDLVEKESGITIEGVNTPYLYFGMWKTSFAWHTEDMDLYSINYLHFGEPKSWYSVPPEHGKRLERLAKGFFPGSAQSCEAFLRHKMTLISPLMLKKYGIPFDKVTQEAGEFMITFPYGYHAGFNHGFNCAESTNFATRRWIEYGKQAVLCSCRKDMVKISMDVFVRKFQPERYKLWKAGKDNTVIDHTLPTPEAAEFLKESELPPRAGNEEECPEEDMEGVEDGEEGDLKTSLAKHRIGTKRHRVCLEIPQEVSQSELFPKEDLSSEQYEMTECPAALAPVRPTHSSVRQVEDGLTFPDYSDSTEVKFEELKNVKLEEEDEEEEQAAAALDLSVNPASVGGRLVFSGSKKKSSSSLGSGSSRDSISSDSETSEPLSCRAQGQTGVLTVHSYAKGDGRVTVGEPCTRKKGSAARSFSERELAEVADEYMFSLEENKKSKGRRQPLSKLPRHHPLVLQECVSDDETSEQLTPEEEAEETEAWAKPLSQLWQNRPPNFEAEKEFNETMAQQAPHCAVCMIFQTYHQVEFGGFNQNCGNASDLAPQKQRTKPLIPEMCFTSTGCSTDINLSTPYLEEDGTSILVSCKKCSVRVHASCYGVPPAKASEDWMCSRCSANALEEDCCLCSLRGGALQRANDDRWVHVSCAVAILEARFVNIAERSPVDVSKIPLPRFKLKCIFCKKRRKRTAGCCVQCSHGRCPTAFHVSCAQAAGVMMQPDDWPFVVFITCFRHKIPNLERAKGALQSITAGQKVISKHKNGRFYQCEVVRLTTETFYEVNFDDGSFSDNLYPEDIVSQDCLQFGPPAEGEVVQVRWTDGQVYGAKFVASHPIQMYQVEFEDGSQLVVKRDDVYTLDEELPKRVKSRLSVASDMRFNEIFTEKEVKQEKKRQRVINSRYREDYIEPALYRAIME

target: Lysine-specific demethylase 4A (Homo sapiens) (UniProt O75164); test: JMJD2A histone demethylase inhibitors, dose response, selectivity assay for GASC-1 inhibitor project, biochemical, DELFIA europium, cherry-picked samples (AID 488840); conditions: GST-JMJD2A(1-420) H3K9me3 demethylation; at 6 µM (top of the series) unless noted;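 further: europium signal reports the dimethyl H3K9 product detected by antibody so inhibitors lower it; 0% = median of neutral control wells and -100% = median of positive control wells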

Activity change, negative = inhibition, inactive:
Cc1ccc(S(=O)(=O)Nc2ccc3c(c2)C(=O)N([C@H](C)CO)C[C@@H](C)[C@@H](CN(C)C(=O)Nc2cccc4ccccc24)O3)cc1 8.37%
COc1cccc(Oc2nccc(N(C)C)c2C#N)c1 -1.23%
O=C(Cn1cnc2c(OCc3ccccc3)ncnc21)NCCCc1ccccc1 -1.3%
Cc1cccnc1Nc1nc(-c2ccc(O)cc2)cs1 4.45%
COc1cccc(C(C[N+](=O)[O-])c2c(C)[nH]n(-c3ccccc3)c2=O)c1 (stereo unspecified) -1.17%
Cc1nn(Cc2ccc([N+](=O)[O-])cc2)c(=O)n1-c1cccc(Cl)c1 -1.66%
Cc1cc(C)nc(NCc2ccc(Cl)cc2)n1 -5.33%
Cc1ccccc1CNc1nnnn1C -0.727%
O=C(COc1c(CO)cc(Br)cc1CO)NC1CCCc2ccccc21 (stereo unspecified) 4.58%
CC(C)(C)c1ccc(OCCC(=O)NC2=NCCS2)cc1 2.6%
N#Cc1ccc(OCC(=O)N2CCN(S(=O)(=O)c3cccs3)CC2)cc1 -1.96%
Cc1ccc(Nc2c(-c3ccccn3)nc3cc(C)ccn23)cc1 -3.14%
COc1ccc(NC(NC(=O)c2cccnc2)C(Cl)(Cl)Cl)cc1 (stereo unspecified) -1.64%
Cc1cc(NC(=O)COc2ncnc3sc(C)c(C)c23)no1 -12%
COc1cc2c(cc1OC)C(=O)N1[C@H]3c4cc(C)ccc4OC[C@@H]3[C@H](c3ccccc3)[C@]1(C)C(=O)N2 7.19%
CCOC(=O)C1=C(C)N(C)C(C)=C(C(=O)OCC)C1c1cccnc1 13.7%
C=CCN(C(=O)Nc1ccccc1)C1CC(=O)N(c2ccc(OC)cc2)C1=O (stereo unspecified) 3.88%
CCOc1ccc(N=Cc2c(O)n(-c3cccc(C)n3)c(=O)c3ccccc23)cc1 2.65%
Cc1ccc(N2NC3(CCN(C(N)=O)CC3)NC2=O)cc1 2.12%
COc1ccc(C(=O)OCC(=O)c2ccccc2)cc1S(=O)(=O)N1CCOCC1 -7.28%
CCN(C(=O)C(C)Sc1ccc(S(=O)(=O)N2CCOCC2)cn1)c1ccccc1 (stereo unspecified) 2.79%
NC(=O)C1CCN(C(=O)c2ccc(Oc3cc(Cl)cc(Cl)c3)o2)CC1 7.13%
Cc1cccc(-n2cnc(C(=O)NNC(=S)Nc3ccccc3)c2)n1 10.8%
NC(=O)Cn1nc([N+](=O)[O-])nc1Oc1ccccc1F -0.225%
O=C(OCc1c(Cl)cccc1Cl)c1cnccn1 -3.04%
COc1cc(C(C(=O)NC2CCCCC2)N(Cc2cccs2)C(=O)Cc2c[nH]c3ccccc23)cc(OC)c1OC (stereo unspecified) -1.46%
O=C(Cn1cnc2c(OCc3ccccc3)ncnc21)N1CCN(c2ccccn2)CC1 -3.78%
COc1ccc(CCNC(=O)N2c3ccccc3Sc3ccccc32)cc1 -4.46%
COc1ccc(S(=O)(=O)N(C)C[C@H]2Oc3ccc(NC(=O)Cn4cnnn4)cc3C(=O)N([C@H](C)CO)C[C@@H]2C)cc1 -2.83%
CCc1nnc(NC(=O)CCC(=O)N2CCN(Cc3ccc(Cl)cc3)CC2)s1 0.488%
COc1ccc(-c2cc(C(F)(F)F)n3nc(C(=O)NCCCN4CCOCC4)cc3n2)cc1 0.776%
Cc1ccc(NC(=O)CSc2nnc(-c3cccs3)n2Cc2ccco2)cc1 3.23%
CCOc1ccc(N2C(=O)CC(N(O)c3ccccc3)C2=O)cc1 (stereo unspecified) -2.85%
CCOC(=O)Cc1ccc(NC(=O)c2ccc(C(C)(C)C)cc2)cc1 4.57%
COc1ccc(S(=O)(=O)C(C#N)c2nc3ccccc3nc2N2CCCCC2)cc1 (stereo unspecified) 2.79%
CCn1c(CCn2ccnc2C)n[nH]c1=S 0.682%
CCOC(=O)N1CCC(N2CCN(c3cc(C)ccc3C)CC2)CC1 0.00581%
Oc1cc2ccccc2cc1-c1nnc2n1-c1ccccc1SC2 -5.93%
Cc1cc(=S)c2cccc(C)c2[nH]1 2.78%
N#CCCn1c(SCC(=O)N2CCN(S(=O)(=O)c3ccccc3)CC2)nc2ccccc21 -0.915%
O=C(O)Cn1cc(/C=C2/SC(=O)N(CC(=O)N3CCCCCC3)C2=O)c2ccccc21 5.21%
Cc1nnc(N(C)C(=O)c2ccccn2)s1 -2.88%
Cc1c(C(c2ccc([N+](=O)[O-])cc2)c2c(C)n(C)n(-c3ccccc3)c2=O)c(=O)n(-c2ccccc2)n1C -0.46%
CC(=O)Nc1ccc(CN2CCN(c3cccc(C(F)(F)F)c3)CC2)cc1 -9.19%
CCN(CC(=O)Nc1ccc2c(c1)OCCO2)C(=O)CC1CCCC1 6.07%
c1csc(Cn2nnnc2CN2CCN(c3nc4ccccc4s3)CC2)c1 -4.77%
O=C(NCC1CCCO1)C(c1ccc(F)cc1)N(CCCN1CCOCC1)C(=O)c1ccc(-c2ccccc2)[nH]1 (stereo unspecified) 13.1%
COc1ccc(NC(=O)N(C)C[C@H]2Oc3ccc(NC(=O)CCC(F)(F)F)cc3C(=O)N([C@H](C)CO)C[C@@H]2C)cc1 -0.526%
CCc1ccc([C@@H]2CC=C(C(=O)O)[C@H](c3ccc(Br)cc3)N2S(=O)(=O)c2ccc(C)cc2)cc1 -3.98%
CCCN(CC(=O)Nc1ccccc1C)C(=O)C1CCN(S(=O)(=O)c2ccccc2C(F)(F)F)CC1 4.14%
CCOC(=O)C1=C(N)Oc2ccc3ccccc3c2C1c1cccnc1 (stereo unspecified) 1.91%
CC(C)n1cnc2c(NCc3ccccc3)nc(NCc3ccccc3)nc21 4.61%
Cc1cccc(NC(=O)CC2Nc3cccc4cccc(c34)NC2=O)c1 (stereo unspecified) -1.51%
C[C@]12c3[nH]c4ccccc4c3CCN1C(=O)C(CC(=O)NCc1cccc(C(F)(F)F)c1)C[C@@H]2C(=O)N1CCCCC1 (stereo partly specified) 0.594%
O=C(/C=C/c1cccs1)NC1CCS(=O)(=O)C1 (stereo unspecified) 0.82%
CN(c1ccc(C(=O)O)cc1)S(=O)(=O)c1ccccc1 3.52%
O=S1(=O)CCC(N=Nc2c(O)n(Cc3ccccc3)c3ccccc23)C1 (stereo unspecified) 1.69%
NS(=O)(=O)c1ccc(CNC(=S)Nc2ccc(F)c(Cl)c2)cc1 -0.901%
COc1ccc(N2C(=O)CSC23CCCCC3)cc1 1.88%
CC(C)(C)c1ccc(C2(C)NC(=O)N(CC(=O)Nc3ccc4c(c3)OCO4)C2=O)cc1 (stereo unspecified) 0.211%
C[C@@H]1CCCCCCCCC(=O)OCCN(C(=O)OC(C)(C)C)[C@H](C)CCCCCCCCC(=O)OCCN(C(=O)OC(C)(C)C)[C@H](C)CCCCCCCCC(=O)OCCN1C(=O)OC(C)(C)C -1.16%
CCCCCCn1c(=O)[nH]c2nc3cc(N)ccc3nc2c1=O -1.91%
Cc1ccc(CSc2ncnc3onc(C)c23)cc1 -0.796%
CCS(=O)(=O)Nc1ccc(C2=NN(C(=O)c3ccco3)C(c3ccc(C)cc3)C2)cc1 (stereo unspecified) -4.43%
Cc1ccc2c(c1)C(=O)N1[C@H]3c4cc(Cl)ccc4OC[C@@H]3[C@H](c3ccccc3)[C@]1(C)C(=O)N2 -3.44%
COc1cccc(/C=C/C(=O)NCCc2ccc(OC)c(OC)c2)c1 -1.71%
C[C@]12c3[nH]c4ccccc4c3CCN1C(=O)C(CC(=O)NCCN1CCOCC1)C[C@@H]2C(=O)N1CCCCC1 (stereo partly specified) -3.38%
O=C(Nc1cccc2ccccc12)OC1C=CS(=O)(=O)C1 (stereo unspecified) 2.29%
CC1(C)C2CCC1(CS(=O)(=O)N1CCN(c3ccccc3F)CC1)C(=O)C2 (stereo unspecified) -1.62%
O=C(Cc1ccccc1)NNC(=O)c1cccs1 4.12%
CCN1C(=O)C(CC(=O)Nc2ccc(OC)cc2)N(CCc2ccccc2F)C1=S (stereo unspecified) -0.736%
CC(NC(=O)CCC(=O)c1ccc(F)cc1)C1CC2CCC1C2 (stereo unspecified) -4.09%
COC(=O)[C@]1(Cc2ccccc2)N[C@H](CN(C)S(=O)(=O)c2ccc(F)cc2)[C@@H]2C(=O)N(Cc3ccccc3)C(=O)[C@@H]21 -1.31%
Cc1ccc(C(=O)N2CCN(c3ccc(Cl)cc3)CC2)cc1 -4.21%
CC(C)(C)c1ccc(C(=O)N2CCC(C(=O)NCc3ccncc3)CC2)cc1 2.05%
Cc1ccc2c(c1)c1c3n2CCCNC3CCC1 (stereo unspecified) -1.58%
COc1cc2c(cc1OC)CN(C(=O)CSc1n[nH]c(N)n1)CC2 0.695%
Cc1ccc(OCC(=O)Nc2ccccc2Sc2ccccc2)c([N+](=O)[O-])n1 -1.07%
CCN(CC)CCCOc1ccc(C)cc1Br 0.073%
CC1CCN(c2ccc3c(c2)S(=O)(=O)c2cccc(C(=O)NC4CC4)c2C3=O)CC1 -1.56%
O=C1CC(CSc2ccc(Cl)cc2)=NN1 -2.85%
CC1(C)[N+]([O-])=C2C(=[N+]([O-])C1(C)C)c1ccccc1/C2=N\O -8.61%
COc1cccc(CNC(=O)c2cc3c(cc2Cl)N2CCCCCC2=NS3(=O)=O)c1 -0.22%
CCCNC(=O)c1ccccc1N1CCN(CCCCN2C(=O)C3CCCCN3C2=O)CC1 (stereo unspecified) 4.2%
CCC(=O)Nc1cc2c(C)cc(=O)oc2cc1C 2.46%
CCOc1ccccc1N(CC(=O)O)S(=O)(=O)c1ccc(C)cc1 -6.21%

Entries from the list above containing an aryl methoxy group (17):
Activity change, negative = inhibition, inactive:
COc1cccc(Oc2nccc(N(C)C)c2C#N)c1 -1.23%
COc1cccc(C(C[N+](=O)[O-])c2c(C)[nH]n(-c3ccccc3)c2=O)c1 (stereo unspecified) -1.17%
COc1ccc(NC(NC(=O)c2cccnc2)C(Cl)(Cl)Cl)cc1 (stereo unspecified) -1.64%
COc1cc2c(cc1OC)C(=O)N1[C@H]3c4cc(C)ccc4OC[C@@H]3[C@H](c3ccccc3)[C@]1(C)C(=O)N2 7.19%
C=CCN(C(=O)Nc1ccccc1)C1CC(=O)N(c2ccc(OC)cc2)C1=O (stereo unspecified) 3.88%
COc1ccc(C(=O)OCC(=O)c2ccccc2)cc1S(=O)(=O)N1CCOCC1 -7.28%
COc1cc(C(C(=O)NC2CCCCC2)N(Cc2cccs2)C(=O)Cc2c[nH]c3ccccc23)cc(OC)c1OC (stereo unspecified) -1.46%
COc1ccc(CCNC(=O)N2c3ccccc3Sc3ccccc32)cc1 -4.46%
COc1ccc(S(=O)(=O)N(C)C[C@H]2Oc3ccc(NC(=O)Cn4cnnn4)cc3C(=O)N([C@H](C)CO)C[C@@H]2C)cc1 -2.83%
COc1ccc(-c2cc(C(F)(F)F)n3nc(C(=O)NCCCN4CCOCC4)cc3n2)cc1 0.776%
COc1ccc(S(=O)(=O)C(C#N)c2nc3ccccc3nc2N2CCCCC2)cc1 (stereo unspecified) 2.79%
COc1ccc(NC(=O)N(C)C[C@H]2Oc3ccc(NC(=O)CCC(F)(F)F)cc3C(=O)N([C@H](C)CO)C[C@@H]2C)cc1 -0.526%
COc1ccc(N2C(=O)CSC23CCCCC3)cc1 1.88%
COc1cccc(/C=C/C(=O)NCCc2ccc(OC)c(OC)c2)c1 -1.71%
CCN1C(=O)C(CC(=O)Nc2ccc(OC)cc2)N(CCc2ccccc2F)C1=S (stereo unspecified) -0.736%
COc1cc2c(cc1OC)CN(C(=O)CSc1n[nH]c(N)n1)CC2 0.695%
COc1cccc(CNC(=O)c2cc3c(cc2Cl)N2CCCCCC2=NS3(=O)=O)c1 -0.22%

As a working copy, two of the compounds above:
Activity change, negative = inhibition, inactive:
CC1(C)C2CCC1(CS(=O)(=O)N1CCN(c3ccccc3F)CC1)C(=O)C2 (stereo unspecified) -1.62%
O=C(Cc1ccccc1)NNC(=O)c1cccs1 4.12%
